# Laboratory results taken from the supplement of paper PMC8728848.
# The other results are listed elsewhere or left out.
# B1: Clec18A (Homo sapiens) (protein)
# chain: PFHTCDLRIDGDCFMVSSEADTYYRARMKCQRKGGVLAQIKRQKVQDILAFYLGRLETTNEVIDSDFETRNFWIGLTYKTAKDSFRWATGEHQAFTSFAFGQPDNHGFGNCVELQASAAFNWNDQRCKTRNRYICQ
# Key:
# Experiment in all cases: glycan array binding signal (z-score within array); higher = stronger binding
# Settings in all cases: glycan notation: IUPAC condensed, linker removed
# [1] = target: GlcNAc(b1-3)Gal(b1-4)GlcNAc(b1-3)Gal(b1-4)GlcNAc(b1-3)GalNAc
# Procedure, shortened: (§1)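 From the Consortium for Functional Glycomics database, 3228 arrays were curated, keeping only those whose protein sequence was available. Binding is given as a within-array Z-score averaged across arrays sharing a protein sequence and across linkers. Negative Z-scores can be read as non-binding.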
# [2] = target: GlcNAc(b1-3)Gal(b1-4)GlcNAc(b1-3)GalNAc
# Procedure, shortened: as §1
# [3] = target: GlcNAc(b1-3)Gal(b1-4)GlcNAc(b1-3)[GlcNAc(b1-3)Gal(b1-4)GlcNAc(b1-3)]GalNAc
# Procedure, shortened: as §1
# [4] = target: GlcNAc(b1-3)Gal(b1-4)GlcNAc(b1-6)[Gal(b1-3)]GalNAc
# Procedure, shortened: as §1
# [5] = target: GlcNAc(b1-3)Gal(b1-4)GlcNAc(b1-6)[GlcNAc(b1-3)Gal(b1-3)]GalNAc
# Procedure, shortened: as §1
# [6] = target: GlcNAc(b1-3)Gal(b1-4)GlcNAc(b1-6)[GlcNAc(b1-3)]Gal(b1-4)GlcNAc
# Procedure, shortened: as §1
# GlcNAc(b1-3)GalNAc = target: GlcNAc(b1-3)GalNAc
# Procedure, shortened: as §1
# GlcNAc(b1-3)Man = target: GlcNAc(b1-3)Man
# Procedure, shortened: as §1
# [7] = target: GlcNAc(b1-3)[GlcNAc(b1-4)][GlcNAc(b1-6)]GlcNAc
# Procedure, shortened: as §1
# [8] = target: GlcNAc(b1-3)[GlcNAc(b1-6)]Gal(b1-4)GlcNAc
# Procedure, shortened: as §1
# [9] = target: GlcNAc(b1-3)[GlcNAc(b1-6)]GalNAc
# Procedure, shortened: as §1
# [10] = target: GlcNAc(b1-4)Gal(b1-4)GlcNAc
# Procedure, shortened: as §1
# GlcNAc(b1-4)GlcNAc = target: GlcNAc(b1-4)GlcNAc
# Procedure, shortened: as §1
# [11] = target: GlcNAc(b1-4)GlcNAc(b1-4)GlcNAc
# Procedure, shortened: as §1
# [12] = target: GlcNAc(b1-4)GlcNAc(b1-4)GlcNAc(b1-4)GlcNAc(b1-4)GlcNAc
# Procedure, shortened: as §1
# [13] = target: GlcNAc(b1-4)GlcNAc(b1-4)GlcNAc(b1-4)GlcNAc(b1-4)GlcNAc(b1-4)GlcNAc
# Procedure, shortened: as §1
# [14] = target: GlcNAc(b1-4)[GlcNAc(b1-6)]GalNAc
# Procedure, shortened: as §1
# [15] = target: GlcNAc(b1-6)Gal(b1-4)GlcNAc
# Procedure, shortened: as §1
# GlcNAc(b1-6)GalNAc = target: GlcNAc(b1-6)GalNAc
# Procedure, shortened: as §1
# [16] = target: GlcNAc6S(b1-3)Gal(b1-4)GlcNAc
# Procedure, shortened: as §1
# Kdn(a2-3)Gal(b1-3)GalNAc = target: Kdn(a2-3)Gal(b1-3)GalNAc
# Procedure, shortened: as §1
# Kdn(a2-3)Gal(b1-3)GlcNAc = target: Kdn(a2-3)Gal(b1-3)GlcNAc
# Procedure, shortened: as §1
# Kdn(a2-3)Gal(b1-4)Glc = target: Kdn(a2-3)Gal(b1-4)Glc
# Procedure, shortened: as §1
# Kdn(a2-3)Gal(b1-4)GlcNAc = target: Kdn(a2-3)Gal(b1-4)GlcNAc
# Procedure, shortened: as §1
# [17] = target: Kdn(a2-3)Gal(b1-4)[Fuc(a1-3)]GlcNAc
# Procedure, shortened: as §1
# Kdn(a2-6)Gal(b1-4)GlcNAc = target: Kdn(a2-6)Gal(b1-4)GlcNAc
# Procedure, shortened: as §1
# [18] = target: Man(a1-2)Man(a1-2)Man(a1-3)Man
# Procedure, shortened: as §1
# [19] = target: Man(a1-2)Man(a1-2)Man(a1-6)[Man(a1-3)]Man
# Procedure, shortened: as §1
# Man(a1-2)Man(a1-3)Man = target: Man(a1-2)Man(a1-3)Man
# Procedure, shortened: as §1
# [20] = target: Man(a1-2)Man(a1-3)[Man(a1-2)Man(a1-6)]Man
# Procedure, shortened: as §1
# [21] = target: Man(a1-2)Man(a1-3)[Man(a1-2)Man(a1-6)]Man(a1-6)[Man(a1-2)Man(a1-2)Man(a1-3)]Man
# Procedure, shortened: as §1
# [22] = target: Man(a1-2)Man(a1-3)[Man(a1-2)Man(a1-6)]Man(a1-6)[Man(a1-2)Man(a1-2)Man(a1-3)]Man(b1-4)GlcNAc(b1-4)GlcNAc
# Procedure, shortened: as §1
# [23] = target: Man(a1-2)Man(a1-3)[Man(a1-6)]Man(a1-6)[Man(a1-2)Man(a1-3)]Man(b1-4)GlcNAc(b1-4)GlcNAc
# Procedure, shortened: as §1
# [24] = target: Man(a1-2)Man(a1-6)[Man(a1-3)]Man(a1-6)[Man(a1-2)Man(a1-2)Man(a1-3)]Man
# Procedure, shortened: as §1
# [25] = target: Man(a1-2)Man(a1-6)[Man(a1-3)]Man(a1-6)[Man(a1-2)Man(a1-2)Man(a1-3)]Man(b1-4)GlcNAc(b1-4)GlcNAc
# Procedure, shortened: as §1
# Man(a1-3)[Man(a1-6)]Man = target: Man(a1-3)[Man(a1-6)]Man
# Procedure, shortened: as §1
# [26] = target: Man(a1-3)[Man(a1-6)]Man(a1-6)[Man(a1-2)Man(a1-3)]Man(b1-4)GlcNAc(b1-4)GlcNAc
# Procedure, shortened: as §1
# [27] = target: Man(a1-3)[Man(a1-6)]Man(a1-6)[Man(a1-3)]Man
# Procedure, shortened: as §1
# [28] = target: Man(a1-3)[Man(a1-6)]Man(a1-6)[Man(a1-3)]Man(b1-4)GlcNAc(b1-4)GlcNAc
# Procedure, shortened: as §1
# [29] = target: Man(a1-3)[Man(a1-6)]Man(b1-4)GlcNAc(b1-4)GlcNAc
# Procedure, shortened: as §1
# [30] = target: Man(a1-3)[Man(a1-6)]Man(b1-4)GlcNAc(b1-4)[Fuc(a1-6)]GlcNAc
# Procedure, shortened: as §1
# Man(a1-6)Man = target: Man(a1-6)Man
# Procedure, shortened: as §1
# Man(b1-4)GlcNAc = target: Man(b1-4)GlcNAc
# Procedure, shortened: as §1
# MurNAc(b1-4)GlcNAc = target: MurNAc(b1-4)GlcNAc
# Procedure, shortened: as §1
# Neu5Ac(a2-3)Gal = target: Neu5Ac(a2-3)Gal
# Procedure, shortened: as §1
binder,measurement,setting,value
B1,glycan array binding signal (z-score),[1],-0.809
same,glycan array binding signal (z-score),[2],-0.749
same,glycan array binding signal (z-score),[3],-0.543
same,glycan array binding signal (z-score),[4],0.123
same,glycan array binding signal (z-score),[5],-0.582
same,glycan array binding signal (z-score),[6],-0.909
same,glycan array binding signal (z-score),GlcNAc(b1-3)GalNAc,-0.572
same,glycan array binding signal (z-score),GlcNAc(b1-3)Man,-0.866
same,glycan array binding signal (z-score),[7],0.98
same,glycan array binding signal (z-score),[8],-0.673
same,glycan array binding signal (z-score),[9],-0.327
same,glycan array binding signal (z-score),[10],-0.426
same,glycan array binding signal (z-score),GlcNAc(b1-4)GlcNAc,-0.752
same,glycan array binding signal (z-score),[11],0.109
same,glycan array binding signal (z-score),[12],-0.848
same,glycan array binding signal (z-score),[13],-0.758
same,glycan array binding signal (z-score),[14],-0.376
same,glycan array binding signal (z-score),[15],-0.666
same,glycan array binding signal (z-score),GlcNAc(b1-6)GalNAc,0.314
same,glycan array binding signal (z-score),[16],-0.779
same,glycan array binding signal (z-score),Kdn(a2-3)Gal(b1-3)GalNAc,-0.348
same,glycan array binding signal (z-score),Kdn(a2-3)Gal(b1-3)GlcNAc,0.75
same,glycan array binding signal (z-score),Kdn(a2-3)Gal(b1-4)Glc,-0.167
same,glycan array binding signal (z-score),Kdn(a2-3)Gal(b1-4)GlcNAc,-0.545
same,glycan array binding signal (z-score),[17],-0.231
same,glycan array binding signal (z-score),Kdn(a2-6)Gal(b1-4)GlcNAc,-0.602
same,glycan array binding signal (z-score),[18],-0.869
same,glycan array binding signal (z-score),[19],-0.61
same,glycan array binding signal (z-score),Man(a1-2)Man(a1-3)Man,-0.803
same,glycan array binding signal (z-score),[20],-0.999
same,glycan array binding signal (z-score),[21],-0.771
same,glycan array binding signal (z-score),[22],-0.084
same,glycan array binding signal (z-score),[23],-0.77
same,glycan array binding signal (z-score),[24],-0.89
same,glycan array binding signal (z-score),[25],-0.291
same,glycan array binding signal (z-score),Man(a1-3)[Man(a1-6)]Man,-0.992
same,glycan array binding signal (z-score),[26],-0.754
same,glycan array binding signal (z-score),[27],1.23
same,glycan array binding signal (z-score),[28],-0.219
same,glycan array binding signal (z-score),[29],-0.389
same,glycan array binding signal (z-score),[30],-0.194
same,glycan array binding signal (z-score),Man(a1-6)Man,-0.685
same,glycan array binding signal (z-score),Man(b1-4)GlcNAc,-0.767
same,glycan array binding signal (z-score),MurNAc(b1-4)GlcNAc,-0.466
same,glycan array binding signal (z-score),Neu5Ac(a2-3)Gal,-0.755
